Data published in the supplement of paper PMC4635364.
Structures can show the parent of a compound that is named as a salt. Some of the results follow. Repeats in this data set agree poorly, so a single value says little.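 ReNCell VM, a human fetal ventral-midbrain neural progenitor line, was differentiated without mitogens. Blinded raters scored images stained for doublecortin (early neurons) or tyrosine hydroxylase (dopaminergic neurons) against untreated wells (0 = no change). Scores were averaged across repeats and both raters, and compounds averaging 2 or more were selected as hits for retesting.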

Assays:
[1] = system: ReNCell VM; assay: neuronal differentiation score (DCX+ cell fraction vs untreated, manual image score) (score (-3 to 3)); higher = more neuronal differentiation; conditions: 2 uM, 2 weeks
[2] = system: ReNCell VM; assay: dopaminergic neuron differentiation score (TH+ cell fraction vs untreated, manual image score) (score (0 to 3)); higher = more TH+ dopaminergic neuron differentiation; conditions: 2 uM, 4 weeks, BDNF 10 ng/ml + GDNF 10 ng/ml

Compound: OC(CCN1CCCCC1)(c1ccccc1)C1CC2C=CC1C2 (configuration not stated)
- neuronal differentiation score ([1]; library: Spectrum): inactive: 0
- dopaminergic neuron differentiation score ([2]; library: Spectrum): inactive: 0

Compound: O=c1ccc2ccc(O)c(O)c2o1 [Daphnetin]
- neuronal differentiation score ([1]; library: LOPAC): inactive: 0
- dopaminergic neuron differentiation score ([2]; library: LOPAC): inactive: 0

Compound: O=C(O)C1CSCN1 (configuration not stated)
- neuronal differentiation score ([1]; library: Spectrum): inactive: 0
- dopaminergic neuron differentiation score ([2]; library: Spectrum): inactive: 0

Compound: CCCN(CCC)CCc1cccc2c1CC(=O)N2 [Ropinirole hydrochloride]
- neuronal differentiation score ([1]; library: LOPAC): inactive: 0
- dopaminergic neuron differentiation score ([2]; library: LOPAC): inactive: 0

Compound: CC1(C)CC2C1CC[C@]1(CBr)CCC3C(CC(=O)O)C(=O)O[C@@]32C1 (some centres not stated) [BROMO-3-HYDROXY-4-(SUCCIN-2-YL)-CARYOLANE gamma-LACTONE]
- neuronal differentiation score ([1]; library: Spectrum): inactive: 0
- dopaminergic neuron differentiation score ([2]; library: Spectrum): inactive: 0

Compound: CC1CCC2(O)C(C)(C)C3CCC2(C)C1C3 (configuration not stated) [patchouli alcohol]
- neuronal differentiation score ([1]; library: Natural): inactive: 0
- dopaminergic neuron differentiation score ([2]; library: Natural): inactive: 0

Compound: COc1cc(C)c(CCC(C)=CC=CC(C)=O)c(C)c1C
- neuronal differentiation score ([1]; library: Natural): inactive: 0
- dopaminergic neuron differentiation score ([2]; library: Natural): inactive: 0

Compound: O=C(O)CCc1ccccc1 [Hydrocinnamic acid]
- neuronal differentiation score ([1]; library: Phytochemical): inactive: 0
- dopaminergic neuron differentiation score ([2]; library: Phytochemical): inactive: 0

Compound: C[n+]1cc2c3c(ccc2c2ccc4cc5c(cc4c21)OCO5)OCO3
- neuronal differentiation score ([1]; library: Spectrum): inactive: 0
- dopaminergic neuron differentiation score ([2]; library: Spectrum): inactive: 0

Compound: COc1cccc(-c2cc(=O)c3ccc(OC)cc3o2)c1
- neuronal differentiation score ([1]; library: Spectrum): inactive: 0
- dopaminergic neuron differentiation score ([2]; library: Spectrum): inactive: 0

Compound: CCOc1ccc(Nc2nc(-c3c(C)nc4ccccn34)cs2)cc1
- neuronal differentiation score ([1]; library: Tocriscreen): inactive: 0
- dopaminergic neuron differentiation score ([2]; library: Tocriscreen): inactive: 0

Compound: CC(C[N+](C)(C)C)OC(N)=O (configuration not stated)
- neuronal differentiation score ([1]; library: Spectrum): inactive: 0
- dopaminergic neuron differentiation score ([2]; library: Spectrum): inactive: 0

Compound: CN(Cc1ccc(C(C)(C)C)cc1)Cc1cccc2ccccc12 [Butenafine Hydrochloride]
- neuronal differentiation score ([1]; library: Prestwick): inactive: 0
- dopaminergic neuron differentiation score ([2]; library: Prestwick): inactive: 0

Compound: FC(F)(Cl)C(F)(F)Cl
- neuronal differentiation score ([1]; library: Spectrum): inactive: 0
- dopaminergic neuron differentiation score ([2]; library: Spectrum): inactive: 0

Compound: CCCCCN(CCCCC)C(=O)C(CCC(=O)O)NC(=O)c1ccc(Cl)c(Cl)c1 (configuration not stated) [Lorglumide sodium salt]
- neuronal differentiation score ([1]; library: Prestwick): inactive: 0
- dopaminergic neuron differentiation score ([2]; library: Prestwick): inactive: 0

Compound: N=C(NC(=O)c1nc(Cl)c(N)nc1N)Nc1ccccc1 [Phenamil methanesulfonate]
- neuronal differentiation score ([1]; library: LOPAC): inactive: -3
- dopaminergic neuron differentiation score ([2]; library: LOPAC): inactive: 0

Compound: CCN(CC)C(=O)C1(c2ccccc2)CC1CN (configuration not stated)
- neuronal differentiation score ([1]; library: Spectrum): inactive: 0
- dopaminergic neuron differentiation score ([2]; library: Spectrum): inactive: 0

Compound: O=C1c2ccccc2C(Cc2ccncc2)(Cc2ccncc2)c2ccccc21 [XE 991 dihydrochloride]
- neuronal differentiation score ([1]; library: Tocriscreen): inactive: 0
- dopaminergic neuron differentiation score ([2]; library: Tocriscreen): inactive: 0

Compound: CN1CCN(CCCN2c3ccccc3Sc3ccc(C(F)(F)F)cc32)CC1
- neuronal differentiation score ([1]; library: Spectrum): inactive: 0
- dopaminergic neuron differentiation score ([2]; library: Spectrum): inactive: 1

Compound: Nc1nc2c(ncn2COCCO)c(=O)[nH]1
- neuronal differentiation score ([1]; library: Spectrum): inactive: 0
- dopaminergic neuron differentiation score ([2]; library: Spectrum): inactive: 0

Compound: COc1c2occc2cc2ccc(=O)oc12
- neuronal differentiation score ([1]; library: Spectrum): inactive: 0
- dopaminergic neuron differentiation score ([2]; library: Spectrum): inactive: 0

Compound: CC(=O)NC[C@H]1CN(c2ccc(N3CCOCC3)c(F)c2)C(=O)O1
- neuronal differentiation score ([1]; library: Spectrum): inactive: 0
- dopaminergic neuron differentiation score ([2]; library: Spectrum): inactive: 0

Compound: Nc1cc(C(Cl)=C(Cl)Cl)c(S(N)(=O)=O)cc1S(N)(=O)=O
- neuronal differentiation score ([1]; library: Spectrum): inactive: -1
- dopaminergic neuron differentiation score ([2]; library: Spectrum): inactive: 0

Compound: CC(Cc1ccc(O)c(O)c1)C(C)Cc1ccc(O)c(O)c1 (configuration not stated) [nordihydroguaiaretic acid]
- neuronal differentiation score ([1]; library: Natural): inactive: 0
- dopaminergic neuron differentiation score ([2]; library: Natural): inactive: 0

Compound: NS(=O)(=O)C#Cc1ccccc1 [Pifithrin->m]
- neuronal differentiation score ([1]; library: Tocriscreen): inactive: 0
- dopaminergic neuron differentiation score ([2]; library: Tocriscreen): inactive: 0

Compound: CN(C)CCC(c1ccc(Br)cc1)c1ccccn1 (configuration not stated)
- neuronal differentiation score ([1]; library: Spectrum): inactive: 0
- dopaminergic neuron differentiation score ([2]; library: Spectrum): inactive: 0
